Reference: publication doi:10.1101/2020.12.09.417477 (bioRxiv, 2020)

Chains of the proteins cited; added tags and fusions are not shown.
UniProt P0A717: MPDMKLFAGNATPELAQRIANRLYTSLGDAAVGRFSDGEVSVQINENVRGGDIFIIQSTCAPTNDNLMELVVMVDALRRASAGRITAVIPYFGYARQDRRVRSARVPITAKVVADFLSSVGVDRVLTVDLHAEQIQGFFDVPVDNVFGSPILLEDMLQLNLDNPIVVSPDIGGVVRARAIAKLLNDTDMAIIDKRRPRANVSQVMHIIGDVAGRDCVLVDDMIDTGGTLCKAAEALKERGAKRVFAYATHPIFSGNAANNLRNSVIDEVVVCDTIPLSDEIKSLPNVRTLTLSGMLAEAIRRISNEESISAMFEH

How the values were obtained:
Assay in all cases: affinity purification with mass spectrometry
[1] = molecular target: C-terminally SPA-tagged CobB (E. coli) (UniProt P75960)
[2] = molecular target: C-terminally SPA-tagged CobB (E. coli) (UniProt P75960); remark: listed apart in the source
SPA-tagged Prs (E. coli) = SPA-tagged Prs (E. coli) (UniProt P0A717)

## phosphoribosyl pyrophosphate synthase Prs (from UniProt P0A717 1-315) (enzyme)
[1]
  binding: binds

B1: FabG (enzyme, UniProt P0AEK2 1-244)
chain: MNFEGKIALVTGASRGIGRAIAETLAARGAKVIGTATSENGAQAISDYLGANGKGLMLNVTDPASIESVLEKIRAEFGEVDILVNNAGITRDNLLMRMKDEEWNDIIETNLSSVFRLSKAVMRAMMKKRHGRIITIGSVVGTMGNGGQANYAAAKAGLIGFSKSLAREVASRGITVNVVAPGFIETDMTRALSDDQRAGILAQVPAGRLGGAQEIANAVAFLASDEAAYITGETLHVNGGMYMV
[2]
  binding: binds

B2: CobB (enzyme, E. coli, UniProt P75960 1-279, looked up)
chain: MLSRRGHRLSRFRKNKRRLRERLRQRIFFRDKVVPEAMEKPRVLVLTGAGISAESGIRTFRAADGLWEEHRVEDVATPEGFDRDPELVQAFYNARRRQLQQPEIQPNAAHLALAKLQDALGDRFLLVTQNIDNLHERAGNTNVIHMHGELLKVRCSQSGQVLDWTGDVTPEDKCHCCQFPAPLRPHVVWFGEMPLGMDEIYMALSMADIFIAIGTSGHVYPAAGFVHEAKLHGAHTVELNLEPSQVGNEFAEKYYGPASQVVPEFVEKLLKGLKAGSIA
SPA-tagged Prs (E. coli)
  binding: binds

Like-named read-outs stand apart in the source and are kept apart here. Results are given in words; binding and its absence hold for the method and conditions named. Binding seen in cells or lysates may run through a third protein. These calls come from enrichment with a bait or labelling near it, and not all partners need be listed.
